{"source": "PubChem BioAssay AID1508588 (Peter MacCallum Cancer Centre, 2020)", "test": "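Genome-wide search for knock-downs that heighten vemurafenib action in melanoma cells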 (primary screen)", "system": "human WM266.4 melanoma cells (BRAF V600 mutant)", "reagent": "siRNA pool against human genes, 40 nM", "time to read-out": "96 h from transfection to read-out", "challenge": "vemurafenib 300 nM (about IC25), added 48 h after transfection, for 48 h; comparison arm got DMSO vehicle only", "measurement": "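Cell gain (DAPI nuclei at end minus before drug, mean of two replicates) and medium lactate by absorbance per cell, both as ratio to non-targeting siRNA, also grouped into fold-change classes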", "direction": "cell gain with vemurafenib: higher = more cell gain than with non-targeting siRNA; lactate per cell with vemurafenib: higher = more lactate made per cell", "active means": "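a knock-down counts as enhancing when its fold-change classes with vehicle and with vemurafenib, taken together, show a stronger drug effect on cell gain or lactate per cell; exact class pairs not stated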", "meaning of the calls": "active = enhances vemurafenib effect; inactive = no enhancement seen", "note": "In all, the deposit lists about 18,000 reagents; this is an unselected part. 790 of all reagents (4.4%) were called active. 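Calls rest on a combination of fold-change classes in drug and vehicle arms, not all shown here.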 Entries without a mark were called inactive. No sequences are given here."}
{"target": "ZNF764 (zinc finger protein 764)", "cell gain with vemurafenib": 0.63, "lactate per cell with vemurafenib": 1.04}
{"target": "TXLNA (taxilin alpha)", "cell gain with vemurafenib": 0.85, "lactate per cell with vemurafenib": 0.67}
{"target": "RRAGA (Ras related GTP binding A)", "cell gain with vemurafenib": 1.03, "lactate per cell with vemurafenib": 0.64}
{"target": "FBXW4 (F-box and WD repeat domain containing 4)", "cell gain with vemurafenib": 0.34, "lactate per cell with vemurafenib": 1.82}
{"target": "VPS39 (VPS39 subunit of HOPS complex)", "cell gain with vemurafenib": 0.88, "lactate per cell with vemurafenib": 0.46}
{"target": "CNOT2 (CCR4-NOT transcription complex subunit 2)", "cell gain with vemurafenib": 0, "lactate per cell with vemurafenib": 1.31}
{"target": "BCKDK (branched chain keto acid dehydrogenase kinase)", "cell gain with vemurafenib": 0.28, "lactate per cell with vemurafenib": 1.24}
{"target": "OR52N5 (olfactory receptor family 52 subfamily N member 5)", "cell gain with vemurafenib": 0.43, "lactate per cell with vemurafenib": 0.81}
{"target": "TRIP12 (thyroid hormone receptor interactor 12)", "cell gain with vemurafenib": 1, "lactate per cell with vemurafenib": 0.71}
{"target": "GGTLC1 (gamma-glutamyltransferase light chain 1)", "cell gain with vemurafenib": 0.42, "lactate per cell with vemurafenib": 1.1}
{"target": "GLMP (glycosylated lysosomal membrane protein)", "cell gain with vemurafenib": 0.32, "lactate per cell with vemurafenib": 2.62}
{"target": "MMP1 (matrix metallopeptidase 1)", "cell gain with vemurafenib": 0.07, "lactate per cell with vemurafenib": 1.52}
{"target": "ADRB3 (adrenoceptor beta 3)", "cell gain with vemurafenib": 0.28, "lactate per cell with vemurafenib": 1.44}
{"target": "FGF1 (fibroblast growth factor 1)", "cell gain with vemurafenib": 0.73, "lactate per cell with vemurafenib": 0.34}
{"target": "HTR1E (5-hydroxytryptamine receptor 1E)", "cell gain with vemurafenib": 0.2, "lactate per cell with vemurafenib": 1.65}
{"target": "ORAI2 (ORAI calcium release-activated calcium modulator 2)", "cell gain with vemurafenib": 0.14, "lactate per cell with vemurafenib": 1.73}
{"target": "PRG2 (proteoglycan 2, pro eosinophil major basic protein)", "cell gain with vemurafenib": 0.77, "lactate per cell with vemurafenib": 1.09}
{"target": "ZNF570 (zinc finger protein 570)", "cell gain with vemurafenib": 0.41, "lactate per cell with vemurafenib": 0.97}
{"target": "CLCN3 (Cl-/H+ antiporter 3)", "cell gain with vemurafenib": 0.81, "lactate per cell with vemurafenib": 0.36}
{"target": "ATP1A2 (ATPase Na+/K+ transporting subunit alpha 2)", "cell gain with vemurafenib": 1.11, "lactate per cell with vemurafenib": 0.5}
{"target": "ADAP1 (ArfGAP with dual PH domains 1)", "cell gain with vemurafenib": 0.23, "lactate per cell with vemurafenib": 0.65}
{"target": "TUBB8 (tubulin beta 8 class VIII)", "cell gain with vemurafenib": 0.52, "lactate per cell with vemurafenib": 1.34}
{"target": "RNASE8 (ribonuclease A family member 8)", "cell gain with vemurafenib": 0.33, "lactate per cell with vemurafenib": 2.64}
{"target": "ENG (endoglin)", "cell gain with vemurafenib": 0.76, "lactate per cell with vemurafenib": 0.81}
{"target": "GRAP (GRB2 related adaptor protein)", "cell gain with vemurafenib": 0.86, "lactate per cell with vemurafenib": 1.4}
{"target": "CRYBA4 (crystallin beta A4)", "cell gain with vemurafenib": 0.54, "lactate per cell with vemurafenib": 0.8}
{"target": "TEX11 (testis expressed 11)", "cell gain with vemurafenib": 0.6, "lactate per cell with vemurafenib": 0.22}
{"target": "ARRB2 (arrestin beta 2)", "cell gain with vemurafenib": 0.52, "lactate per cell with vemurafenib": 0.94}
{"target": "ITIH3 (inter-alpha-trypsin inhibitor heavy chain 3)", "cell gain with vemurafenib": "0.62 (active)", "lactate per cell with vemurafenib": 0.49}
{"target": "AGR3", "cell gain with vemurafenib": 0.77, "lactate per cell with vemurafenib": 0.94}
{"target": "PPP5C (protein phosphatase 5 catalytic subunit)", "cell gain with vemurafenib": 0.54, "lactate per cell with vemurafenib": 1.32}
{"target": "GUCY2C (guanylate cyclase 2C)", "cell gain with vemurafenib": 0.96, "lactate per cell with vemurafenib": 0.63}
{"target": "SLC23A1", "cell gain with vemurafenib": 1.29, "lactate per cell with vemurafenib": 0.64}
{"target": "GNG7 (G protein subunit gamma 7)", "cell gain with vemurafenib": 0.5, "lactate per cell with vemurafenib": 0.64}
{"target": "FAM117B (family with sequence similarity 117 member B)", "cell gain with vemurafenib": 0.5, "lactate per cell with vemurafenib": 1.04}
{"target": "TMEM205 (transmembrane protein 205)", "cell gain with vemurafenib": 0.42, "lactate per cell with vemurafenib": 0.86}
{"target": "GALNTL5 (polypeptide N-acetylgalactosaminyltransferase like 5)", "cell gain with vemurafenib": 0.69, "lactate per cell with vemurafenib": 1.27}
{"target": "FGF2 (fibroblast growth factor 2)", "cell gain with vemurafenib": 0.67, "lactate per cell with vemurafenib": 0.58}
{"target": "AZIN1 (antizyme inhibitor 1)", "cell gain with vemurafenib": 0.55, "lactate per cell with vemurafenib": 0.78}
{"target": "ERG28 (ergosterol biosynthesis 28 homolog)", "cell gain with vemurafenib": 0.28, "lactate per cell with vemurafenib": 2.52}
